According to patent publication US20050002904A1, “Uses of vascular endothelial growth factor and type I collagen inducible protein (VCIP)” (priority 2003, published 2005):
No constants are given. Whether binding was seen depends on the method and setting. Binding seen in cells or lysates may run through a third protein. Some binding calls cover weakened binding; strength is not graded here.

By UniProt entry, the sequences of proteins in these tests, tags left out. Where a name states a change or a piece, a line headed by the entry shows the natural chain unless it says otherwise.
UniProt O14495: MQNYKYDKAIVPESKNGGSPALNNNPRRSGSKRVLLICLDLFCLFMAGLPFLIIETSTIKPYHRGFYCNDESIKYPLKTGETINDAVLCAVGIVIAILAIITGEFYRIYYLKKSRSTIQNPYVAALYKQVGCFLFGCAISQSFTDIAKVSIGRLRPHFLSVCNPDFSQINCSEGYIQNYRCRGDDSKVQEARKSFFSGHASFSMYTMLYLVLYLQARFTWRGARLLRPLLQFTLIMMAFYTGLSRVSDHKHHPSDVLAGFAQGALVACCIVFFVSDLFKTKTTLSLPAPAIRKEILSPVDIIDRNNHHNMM

How the values were obtained:
p120catenin (human) [1] = target: T1, p120catenin (human) (UniProt O60716); assay: reciprocal co-immunoprecipitation from HUVECs infected with full length PAP2b (WT), western blot
T1 sequence (looked up): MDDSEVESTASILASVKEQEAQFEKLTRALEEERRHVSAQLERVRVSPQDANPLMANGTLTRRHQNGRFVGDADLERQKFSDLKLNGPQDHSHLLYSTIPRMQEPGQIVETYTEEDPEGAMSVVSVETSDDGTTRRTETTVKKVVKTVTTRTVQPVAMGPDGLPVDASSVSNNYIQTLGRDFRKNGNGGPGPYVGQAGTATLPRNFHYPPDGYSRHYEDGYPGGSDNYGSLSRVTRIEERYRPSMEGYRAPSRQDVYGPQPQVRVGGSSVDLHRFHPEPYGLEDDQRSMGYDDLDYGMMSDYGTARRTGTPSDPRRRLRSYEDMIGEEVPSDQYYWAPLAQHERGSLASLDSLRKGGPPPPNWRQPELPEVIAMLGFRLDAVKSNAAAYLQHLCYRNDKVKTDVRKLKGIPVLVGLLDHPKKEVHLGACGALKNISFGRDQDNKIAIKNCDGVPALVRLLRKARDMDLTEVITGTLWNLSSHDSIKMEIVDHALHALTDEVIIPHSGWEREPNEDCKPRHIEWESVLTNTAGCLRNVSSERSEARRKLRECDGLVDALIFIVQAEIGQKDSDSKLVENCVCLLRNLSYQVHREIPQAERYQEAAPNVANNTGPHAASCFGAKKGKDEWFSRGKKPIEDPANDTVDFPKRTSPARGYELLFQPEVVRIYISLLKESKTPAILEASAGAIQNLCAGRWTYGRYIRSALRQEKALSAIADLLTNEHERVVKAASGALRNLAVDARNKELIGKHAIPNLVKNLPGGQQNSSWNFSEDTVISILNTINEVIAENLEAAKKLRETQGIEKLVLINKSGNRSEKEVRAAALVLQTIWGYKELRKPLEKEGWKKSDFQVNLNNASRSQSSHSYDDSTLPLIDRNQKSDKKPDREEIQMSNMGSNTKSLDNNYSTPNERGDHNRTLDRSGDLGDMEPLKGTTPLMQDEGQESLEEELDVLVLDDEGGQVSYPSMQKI

p120catenin (human) [2] = target: T1, p120catenin (human); assay: anti-HA co-immunoprecipitation from infected endothelial cells, anti-p120 catenin blot
p120catenin (human) [3] = target: T1, p120catenin (human); assay: co-immunoprecipitation and far-western, endothelial cells
p120catenin (human) [4] = target: T1, p120catenin (human); assay: reciprocal co-immunoprecipitation from E-cadherin deficient SW480 cells stably expressing WT-PAP2b
p120catenin (human) [5] = target: T1, p120catenin (human); assay: co-immunoprecipitation from SW480 lysate immunodepleted with anti-pan-cadherin mAb
p120catenin (human) [6] = target: T1, p120catenin (human); assay: co-immunoprecipitation and western blot, HUVECs and SW480 cells

Measured: binding

wild-type VCIP/PAP2b, HA-tagged, expressed from pLNCX2-VCIP-RGD (from UniProt O14495 1-311)
binds: all assays above
